# How the values were obtained:
# MEC-1 = assay: Proliferation of MEC-1 cells; assay type: cell-based, human; conditions: MEC-1, increasing doses, 72h
# OCI-LY1 = assay: Proliferation of OCI-LY1 cells; assay type: cell-based, human; conditions: OCI-LY1, increasing doses, 72h
compound,measurement,setting,value
CCNC(=O)C[C@@H]1N=C(c2ccc(Cl)cc2)c2cc(OC)ccc2-n2c(C)nnc21 [iBET762],proliferation,MEC-1,Dose dependent decrease of proliferation
same,proliferation,OCI-LY1,Dose dependent decrease of proliferation
